Assay results: publication doi:10.1101/2025.10.16.682774 (bioRxiv, 2025)

By UniProt entry, the sequences of proteins in these tests, tags left out. Where a name states a change or a piece, a line headed by the entry shows the natural chain unless it says otherwise.
UniProt O15027: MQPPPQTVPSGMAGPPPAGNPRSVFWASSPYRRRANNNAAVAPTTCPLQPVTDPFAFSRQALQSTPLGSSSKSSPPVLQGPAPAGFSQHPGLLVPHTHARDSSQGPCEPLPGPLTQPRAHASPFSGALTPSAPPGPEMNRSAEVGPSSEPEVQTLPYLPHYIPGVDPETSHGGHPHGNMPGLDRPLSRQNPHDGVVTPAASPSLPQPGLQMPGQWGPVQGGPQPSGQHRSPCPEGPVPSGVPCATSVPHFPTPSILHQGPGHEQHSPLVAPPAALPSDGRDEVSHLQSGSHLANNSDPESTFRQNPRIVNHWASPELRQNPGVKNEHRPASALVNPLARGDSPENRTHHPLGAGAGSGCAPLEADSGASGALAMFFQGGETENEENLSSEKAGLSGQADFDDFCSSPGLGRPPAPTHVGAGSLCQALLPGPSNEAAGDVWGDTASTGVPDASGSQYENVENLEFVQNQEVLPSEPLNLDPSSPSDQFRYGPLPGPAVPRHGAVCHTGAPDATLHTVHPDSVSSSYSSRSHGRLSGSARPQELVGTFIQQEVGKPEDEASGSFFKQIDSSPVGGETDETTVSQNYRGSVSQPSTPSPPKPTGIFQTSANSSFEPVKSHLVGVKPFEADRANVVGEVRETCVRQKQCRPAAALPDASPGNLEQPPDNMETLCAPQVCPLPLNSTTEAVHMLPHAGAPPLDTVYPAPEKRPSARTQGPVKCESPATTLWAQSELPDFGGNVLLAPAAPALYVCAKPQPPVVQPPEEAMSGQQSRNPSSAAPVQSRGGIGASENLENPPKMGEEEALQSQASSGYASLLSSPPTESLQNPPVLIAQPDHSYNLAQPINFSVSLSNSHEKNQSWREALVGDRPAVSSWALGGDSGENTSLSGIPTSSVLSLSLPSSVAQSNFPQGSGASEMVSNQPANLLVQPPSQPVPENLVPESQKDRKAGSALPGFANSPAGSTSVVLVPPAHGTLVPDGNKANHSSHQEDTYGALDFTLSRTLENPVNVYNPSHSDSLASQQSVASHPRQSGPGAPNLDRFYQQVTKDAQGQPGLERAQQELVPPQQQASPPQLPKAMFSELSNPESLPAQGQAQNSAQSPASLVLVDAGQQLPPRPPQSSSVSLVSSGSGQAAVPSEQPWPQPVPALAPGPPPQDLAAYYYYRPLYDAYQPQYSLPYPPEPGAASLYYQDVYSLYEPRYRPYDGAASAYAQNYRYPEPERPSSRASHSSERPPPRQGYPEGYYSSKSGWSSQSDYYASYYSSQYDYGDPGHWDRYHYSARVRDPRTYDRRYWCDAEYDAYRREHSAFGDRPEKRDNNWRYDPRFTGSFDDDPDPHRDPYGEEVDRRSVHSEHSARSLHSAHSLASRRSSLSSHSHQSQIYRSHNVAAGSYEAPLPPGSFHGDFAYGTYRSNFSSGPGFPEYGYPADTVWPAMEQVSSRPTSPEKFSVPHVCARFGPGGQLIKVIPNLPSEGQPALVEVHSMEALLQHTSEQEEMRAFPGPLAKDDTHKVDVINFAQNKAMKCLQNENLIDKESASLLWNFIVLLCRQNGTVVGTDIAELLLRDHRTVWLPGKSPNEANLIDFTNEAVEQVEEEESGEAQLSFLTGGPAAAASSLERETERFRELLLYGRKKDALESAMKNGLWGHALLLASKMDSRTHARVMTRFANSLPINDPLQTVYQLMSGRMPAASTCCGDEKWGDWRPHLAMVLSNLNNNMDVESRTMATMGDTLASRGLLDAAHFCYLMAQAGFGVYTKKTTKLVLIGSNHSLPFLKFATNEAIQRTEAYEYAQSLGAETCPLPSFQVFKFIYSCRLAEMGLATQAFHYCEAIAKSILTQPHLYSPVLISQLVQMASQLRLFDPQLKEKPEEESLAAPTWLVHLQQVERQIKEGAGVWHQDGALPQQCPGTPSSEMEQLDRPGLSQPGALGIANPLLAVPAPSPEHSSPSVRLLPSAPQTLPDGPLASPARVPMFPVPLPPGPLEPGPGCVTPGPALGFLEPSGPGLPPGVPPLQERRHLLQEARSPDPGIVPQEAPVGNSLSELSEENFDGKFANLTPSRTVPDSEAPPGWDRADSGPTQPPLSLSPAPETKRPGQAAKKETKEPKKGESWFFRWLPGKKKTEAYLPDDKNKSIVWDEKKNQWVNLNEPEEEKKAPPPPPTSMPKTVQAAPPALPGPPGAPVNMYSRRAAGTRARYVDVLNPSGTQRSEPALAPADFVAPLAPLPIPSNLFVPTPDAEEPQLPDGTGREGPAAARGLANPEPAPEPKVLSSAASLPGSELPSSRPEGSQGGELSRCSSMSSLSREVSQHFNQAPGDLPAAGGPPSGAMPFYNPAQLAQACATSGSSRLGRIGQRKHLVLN

Tests used:
[1] = target: Sec16A(650-776) site 1 mutant, GFP fusion (human) (UniProt O15027); experiment: co-IP
[2] = target: Sec16A(650-776) site 2 mutant, GFP fusion (human) (UniProt O15027); experiment: co-IP
[3] = target: mitochondrial form of Sec16A(650-776), site 2 mutant (human) (UniProt O15027); experiment: mitochondrial relocation assay
[4] = target: mitochondrial form of Sec16A(650-776), site 1 mutant (human) (UniProt O15027); experiment: mitochondrial relocation assay

| binding [1] | binding [2] | binding [3] | binding [4] | Binder |
| --- | --- | --- | --- | --- |
| no binding | no binding |  |  | endogenous p115 (HEK293T) (protein, UniProt O60763 1-962) MNFLRGVMGGQSAGPQHTEAETIQKLCDRVASSTLLDDRRNAVRALKSLSKKYRLEVGIQAMEHLIHVLQTDRSDSEIIGYALDTLYNIISNEEEEEVEENSTRQSEDLGSQFTEIFIKQQENVTLLLSLLEEFDFHVRWPGVKLLTSLLKQLGPQVQQIILVSPMGVSRLMDLLADSREVIRNDGVLLLQALTRSNGAIQKIVAFENAFERLLDIISEEGNSDGGIVVEDCLILLQNLLKNNNSNQNFFKEGSYIQRMKPWFEVGDENSGWSAQKVTNLHLMLQLVRVLVSPTNPPGATSSCQKAMFQCGLLQQLCTILMATGVPADILTETINTVSEVIRGCQVNQDYFASVNAPSNPPRPAIVVLLMSMVNERQPFVLRCAVLYCFQCFLYKNQKGQGEIVSTLLPSTIDATGNSVSAGQLLCGGLFSTDSLSNWCAAVALAHALQENATQKEQLLRVQLATSIGNPPVSLLQQCTNILSQGSKIQTRVGLLMLLCTWLSNCPIAVTHFLHNSANVPFLTGQIAENLGEEEQLVQGLCALLLGISIYFNDNSLESYMKEKLKQLIEKRIGKENFIEKLGFISKHELYSRASQKPQPNFPSPEYMIFDHEFTKLVKELEGVITKAIYKSSEEDKKEEEVKKTLEQHDNIVTHYKNMIREQDLQLEELRQQVSTLKCQNEQLQTAVTQQVSQIQQHKDQYNLLKIQLGKDNQHQGSYSEGAQMNGIQPEEIGRLREEIEELKRNQELLQSQLTEKDSMIENMKSSQTSGTNEQSSAIVSARDSEQVAELKQELATLKSQLNSQSVEITKLQTEKQELLQKTEAFAKSVEVQGETETIIATKTTDVEGRLSALLQETKELKNEIKALSEERTAIKEQLDSSNSTIAILQTEKDKLELEITDSKKEQDDLLVLLADQDQKILSLKNKLKDLGHPVEEEDELESGDQEDEDDESEDPGKDLDHI |
|  |  | no binding | no binding | endogenous p115 (HeLa) (protein, UniProt O60763 1-962) MNFLRGVMGGQSAGPQHTEAETIQKLCDRVASSTLLDDRRNAVRALKSLSKKYRLEVGIQAMEHLIHVLQTDRSDSEIIGYALDTLYNIISNEEEEEVEENSTRQSEDLGSQFTEIFIKQQENVTLLLSLLEEFDFHVRWPGVKLLTSLLKQLGPQVQQIILVSPMGVSRLMDLLADSREVIRNDGVLLLQALTRSNGAIQKIVAFENAFERLLDIISEEGNSDGGIVVEDCLILLQNLLKNNNSNQNFFKEGSYIQRMKPWFEVGDENSGWSAQKVTNLHLMLQLVRVLVSPTNPPGATSSCQKAMFQCGLLQQLCTILMATGVPADILTETINTVSEVIRGCQVNQDYFASVNAPSNPPRPAIVVLLMSMVNERQPFVLRCAVLYCFQCFLYKNQKGQGEIVSTLLPSTIDATGNSVSAGQLLCGGLFSTDSLSNWCAAVALAHALQENATQKEQLLRVQLATSIGNPPVSLLQQCTNILSQGSKIQTRVGLLMLLCTWLSNCPIAVTHFLHNSANVPFLTGQIAENLGEEEQLVQGLCALLLGISIYFNDNSLESYMKEKLKQLIEKRIGKENFIEKLGFISKHELYSRASQKPQPNFPSPEYMIFDHEFTKLVKELEGVITKAIYKSSEEDKKEEEVKKTLEQHDNIVTHYKNMIREQDLQLEELRQQVSTLKCQNEQLQTAVTQQVSQIQQHKDQYNLLKIQLGKDNQHQGSYSEGAQMNGIQPEEIGRLREEIEELKRNQELLQSQLTEKDSMIENMKSSQTSGTNEQSSAIVSARDSEQVAELKQELATLKSQLNSQSVEITKLQTEKQELLQKTEAFAKSVEVQGETETIIATKTTDVEGRLSALLQETKELKNEIKALSEERTAIKEQLDSSNSTIAILQTEKDKLELEITDSKKEQDDLLVLLADQDQKILSLKNKLKDLGHPVEEEDELESGDQEDEDDESEDPGKDLDHI |

These are yes or no findings as the source states them, for the method shown. For some of these results: In cells and extracts the contact can be indirect.
